This is an account of results in paper PMC7432317, “Structural Analysis of the SANT/Myb Domain of FLASH and YARP Proteins and Their Complex with the C-Terminal Fragment of NPAT by NMR Spectroscopy and Computer Simulations” (International Journal of Molecular Sciences, 2020).

Protein sequences, listed by entry. Tags and fused reporters are not part of them. Lines headed by an entry give the natural chain unless they say otherwise; changes in a name come on top.
UniProt Q9UKL3: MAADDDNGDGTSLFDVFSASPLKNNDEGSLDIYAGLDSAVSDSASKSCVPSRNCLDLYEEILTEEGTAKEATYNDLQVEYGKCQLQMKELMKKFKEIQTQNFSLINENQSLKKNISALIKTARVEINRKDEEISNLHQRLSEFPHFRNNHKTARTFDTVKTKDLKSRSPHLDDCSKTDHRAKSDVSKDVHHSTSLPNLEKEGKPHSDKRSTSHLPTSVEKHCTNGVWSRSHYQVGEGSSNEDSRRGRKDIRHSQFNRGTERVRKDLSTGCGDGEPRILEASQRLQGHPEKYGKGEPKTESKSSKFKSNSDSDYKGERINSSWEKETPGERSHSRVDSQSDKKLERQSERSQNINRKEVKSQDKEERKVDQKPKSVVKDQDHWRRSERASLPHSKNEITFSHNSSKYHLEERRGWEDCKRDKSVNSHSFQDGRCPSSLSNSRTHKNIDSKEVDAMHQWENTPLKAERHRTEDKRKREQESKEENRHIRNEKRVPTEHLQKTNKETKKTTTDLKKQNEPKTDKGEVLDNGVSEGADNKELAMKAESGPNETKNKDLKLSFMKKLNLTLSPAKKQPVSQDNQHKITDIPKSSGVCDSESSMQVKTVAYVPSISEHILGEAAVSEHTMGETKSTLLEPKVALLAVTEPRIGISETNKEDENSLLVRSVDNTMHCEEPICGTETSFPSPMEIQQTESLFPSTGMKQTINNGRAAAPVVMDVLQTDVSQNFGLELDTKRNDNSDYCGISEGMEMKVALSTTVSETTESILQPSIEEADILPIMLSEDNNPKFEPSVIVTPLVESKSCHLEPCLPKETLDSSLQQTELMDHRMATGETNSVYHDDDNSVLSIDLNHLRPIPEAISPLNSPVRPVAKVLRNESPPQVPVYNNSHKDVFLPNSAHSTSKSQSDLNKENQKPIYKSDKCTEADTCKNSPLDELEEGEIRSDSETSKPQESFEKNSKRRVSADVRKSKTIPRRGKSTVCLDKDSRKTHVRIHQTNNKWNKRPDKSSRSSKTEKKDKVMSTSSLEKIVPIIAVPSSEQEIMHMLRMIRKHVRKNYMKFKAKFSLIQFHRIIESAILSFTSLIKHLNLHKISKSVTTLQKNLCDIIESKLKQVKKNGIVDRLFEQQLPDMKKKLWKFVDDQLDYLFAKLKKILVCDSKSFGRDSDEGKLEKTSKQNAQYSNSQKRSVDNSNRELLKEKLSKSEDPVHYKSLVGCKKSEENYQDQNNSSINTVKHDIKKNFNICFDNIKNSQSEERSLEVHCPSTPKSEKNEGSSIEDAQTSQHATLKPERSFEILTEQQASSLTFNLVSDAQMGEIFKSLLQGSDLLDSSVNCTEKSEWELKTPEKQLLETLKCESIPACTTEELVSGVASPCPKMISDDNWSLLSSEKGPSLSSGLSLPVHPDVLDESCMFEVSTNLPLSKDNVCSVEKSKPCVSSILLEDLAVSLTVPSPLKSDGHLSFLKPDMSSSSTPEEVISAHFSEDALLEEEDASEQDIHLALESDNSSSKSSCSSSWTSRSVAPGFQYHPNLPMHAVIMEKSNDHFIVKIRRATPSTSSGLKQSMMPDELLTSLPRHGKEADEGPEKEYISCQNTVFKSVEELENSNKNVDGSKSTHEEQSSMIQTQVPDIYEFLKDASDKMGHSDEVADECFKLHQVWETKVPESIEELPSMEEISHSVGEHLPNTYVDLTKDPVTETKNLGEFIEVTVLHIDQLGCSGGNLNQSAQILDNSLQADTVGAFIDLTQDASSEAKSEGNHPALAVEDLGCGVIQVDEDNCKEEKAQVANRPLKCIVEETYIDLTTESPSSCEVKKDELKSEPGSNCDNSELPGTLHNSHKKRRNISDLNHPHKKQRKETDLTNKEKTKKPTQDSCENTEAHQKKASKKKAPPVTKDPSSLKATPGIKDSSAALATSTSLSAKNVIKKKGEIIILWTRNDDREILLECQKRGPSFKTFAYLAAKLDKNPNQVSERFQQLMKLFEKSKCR

For experiment [1], the target named is GST fusion of the SANT/Myb domain of YARP (61 amino acids) (human). Briefly: pull-down; GST fusions limited to the SANT/Myb domain of FLASH (60 aa) or YARP (61 aa) incubated with 35S-labelled in vitro translated NPAT (last 131 amino acids), glutathione beads, radiography; KCl not stated for this set; 600 mM KCl also tested (NPAT-YARP stabilized, NPAT-FLASH weakened); only the target purified.

Experiment [2] concerns the target GST fusion of the SANT/Myb domain of FLASH (60 amino acids) (human) (UniProt Q9UKL3). The description is as above.

These are yes or no findings as the source states them, for the method shown. In cells and extracts the contact can be indirect. A result given as binding can be weak or reduced; the word gives no strength.

B1: NPAT, the last 131 amino acids, wild type (domain or fragment, UniProt Q14207 1297-1427)
chain: EDSSTSKVMVPPVTPDLPACSPASETGSENSVNMAAHTLMILSRAAISRTTSATPLKDNTQQFRASSRSTTKKRKIEELDERERNSRPSSKNLTNSSIPMKKKKIKKKKLPSSFPAGMDVDKFLLSLHYDE
modifications: 35S label
For B1, the binding result in experiment [1] and in experiment [2] was “binds” throughout.

B2: NPAT, the last 131 amino acids, H1424A (domain or fragment, UniProt Q14207 1297-1427)
chain: EDSSTSKVMVPPVTPDLPACSPASETGSENSVNMAAHTLMILSRAAISRTTSATPLKDNTQQFRASSRSTTKKRKIEELDERERNSRPSSKNLTNSSIPMKKKKIKKKKLPSSFPAGMDVDKFLLSLAYDE
modifications: 35S label
Turning to B2, the binding entry in experiment [1] and in experiment [2] was “binds” each time.

B3: NPAT, the last 131 amino acids, L1423A (domain or fragment, UniProt Q14207 1297-1427)
chain: EDSSTSKVMVPPVTPDLPACSPASETGSENSVNMAAHTLMILSRAAISRTTSATPLKDNTQQFRASSRSTTKKRKIEELDERERNSRPSSKNLTNSSIPMKKKKIKKKKLPSSFPAGMDVDKFLLSAHYDE
modifications: 35S label
Turning to B3, the binding result in experiment [1] was “binds weakly”; in experiment [2] it was “binds”.

B4: NPAT, the last 131 amino acids, F1410A (domain or fragment, UniProt Q14207 1297-1427)
chain: EDSSTSKVMVPPVTPDLPACSPASETGSENSVNMAAHTLMILSRAAISRTTSATPLKDNTQQFRASSRSTTKKRKIEELDERERNSRPSSKNLTNSSIPMKKKKIKKKKLPSSAPAGMDVDKFLLSLHYDE
modifications: 35S label
B4: the binding result in experiment [1] and in experiment [2] was “binds” each time.

B5: NPAT, the last 131 amino acids, F1419A (domain or fragment, UniProt Q14207 1297-1427)
chain: EDSSTSKVMVPPVTPDLPACSPASETGSENSVNMAAHTLMILSRAAISRTTSATPLKDNTQQFRASSRSTTKKRKIEELDERERNSRPSSKNLTNSSIPMKKKKIKKKKLPSSFPAGMDVDKALLSLHYDE
modifications: 35S label
As to B5, the binding result in experiment [1] and in experiment [2] was “binds” throughout.

B6: NPAT, the last 131 amino acids, L1420A (domain or fragment, UniProt Q14207 1297-1427)
chain: EDSSTSKVMVPPVTPDLPACSPASETGSENSVNMAAHTLMILSRAAISRTTSATPLKDNTQQFRASSRSTTKKRKIEELDERERNSRPSSKNLTNSSIPMKKKKIKKKKLPSSFPAGMDVDKFALSLHYDE
modifications: 35S label
Regarding B6, the binding entry in experiment [1] was “binds weakly”; in experiment [2], “binds”.

B7: NPAT, the last 131 amino acids, Y1425A (domain or fragment, UniProt Q14207 1297-1427)
chain: EDSSTSKVMVPPVTPDLPACSPASETGSENSVNMAAHTLMILSRAAISRTTSATPLKDNTQQFRASSRSTTKKRKIEELDERERNSRPSSKNLTNSSIPMKKKKIKKKKLPSSFPAGMDVDKFLLSLHADE
modifications: 35S label
As to B7, the binding entry in experiment [1] and in experiment [2] was “binds” throughout.

B8: NPAT, the last 131 amino acids, with the two acidic residues at the C-terminus deleted (ΔDE) (domain or fragment, UniProt Q14207 1297-1425)
chain: EDSSTSKVMVPPVTPDLPACSPASETGSENSVNMAAHTLMILSRAAISRTTSATPLKDNTQQFRASSRSTTKKRKIEELDERERNSRPSSKNLTNSSIPMKKKKIKKKKLPSSFPAGMDVDKFLLSLHY
modifications: 35S label
For B8, the binding result in experiment [1] and in experiment [2] was “binds” in each case.
